Test results: publication PMC12552980
These are yes or no findings as the source states them, for the method shown. In cells and extracts the contact can be indirect. Some results given as binding are weak or reduced against the parent protein; the word gives no strength. For some assays here: Sequences can lack the tags named with a protein.

Amino acid sequences for entries named in this document (tags omitted).
UniProt P29475: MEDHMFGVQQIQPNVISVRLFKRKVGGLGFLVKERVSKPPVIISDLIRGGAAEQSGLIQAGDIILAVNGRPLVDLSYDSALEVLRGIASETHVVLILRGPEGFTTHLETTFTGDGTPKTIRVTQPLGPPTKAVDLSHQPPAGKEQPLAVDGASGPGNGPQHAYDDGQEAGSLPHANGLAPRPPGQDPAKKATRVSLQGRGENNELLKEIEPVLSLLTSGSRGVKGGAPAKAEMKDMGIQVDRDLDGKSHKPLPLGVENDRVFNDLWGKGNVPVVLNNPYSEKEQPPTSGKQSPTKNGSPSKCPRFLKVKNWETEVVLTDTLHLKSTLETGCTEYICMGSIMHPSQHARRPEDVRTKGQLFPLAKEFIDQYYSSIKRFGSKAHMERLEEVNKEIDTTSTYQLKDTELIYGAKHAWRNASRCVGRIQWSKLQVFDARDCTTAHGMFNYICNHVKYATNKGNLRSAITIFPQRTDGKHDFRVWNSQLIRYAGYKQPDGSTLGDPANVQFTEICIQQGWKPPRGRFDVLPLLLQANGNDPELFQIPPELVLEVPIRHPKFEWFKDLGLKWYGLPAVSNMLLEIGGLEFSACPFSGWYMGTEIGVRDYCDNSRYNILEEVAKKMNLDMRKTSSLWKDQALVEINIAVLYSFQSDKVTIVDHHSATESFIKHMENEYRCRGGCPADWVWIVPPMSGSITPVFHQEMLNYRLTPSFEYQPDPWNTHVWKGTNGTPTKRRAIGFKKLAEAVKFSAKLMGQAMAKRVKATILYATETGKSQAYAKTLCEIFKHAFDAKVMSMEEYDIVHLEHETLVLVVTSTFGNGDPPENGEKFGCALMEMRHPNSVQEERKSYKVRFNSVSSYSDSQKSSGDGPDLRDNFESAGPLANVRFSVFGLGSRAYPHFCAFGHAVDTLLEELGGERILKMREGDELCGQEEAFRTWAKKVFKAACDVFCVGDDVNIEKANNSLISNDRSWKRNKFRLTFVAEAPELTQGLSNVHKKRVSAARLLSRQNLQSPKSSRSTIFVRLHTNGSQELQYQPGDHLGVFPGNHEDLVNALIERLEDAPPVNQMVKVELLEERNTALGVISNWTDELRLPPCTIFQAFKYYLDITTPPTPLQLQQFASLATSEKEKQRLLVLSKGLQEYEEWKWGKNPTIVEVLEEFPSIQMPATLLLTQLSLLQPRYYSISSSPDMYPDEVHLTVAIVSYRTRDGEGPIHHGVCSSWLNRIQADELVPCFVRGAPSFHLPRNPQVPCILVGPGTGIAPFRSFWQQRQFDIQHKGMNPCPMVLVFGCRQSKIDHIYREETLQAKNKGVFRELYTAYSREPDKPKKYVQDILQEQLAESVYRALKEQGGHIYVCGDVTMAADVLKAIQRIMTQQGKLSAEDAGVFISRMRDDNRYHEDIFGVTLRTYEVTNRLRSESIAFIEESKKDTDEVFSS

Columns and labels:
HA-KRAS = HA-KRAS (UniProt P01116); assay: co-IP; HEK293T cells co-transfected with FLAG-TCOF1 and HA-KRAS; IP with FLAG or HA antibodies, reciprocal
[1] = target: Neuronal nitric oxide synthase (nNOS) (UniProt P29475); assay: co-IP; lysate of Huh6 cells overexpressing nNOS; IP with nNOS antibodies, blot with KRAS and TCOF1 antibodies; IgG as negative control

B1: FLAG-TCOF1 (protein, UniProt Q13428 1-1488)
chain: MAEARKRRELLPLIYHHLLRAGYVRAAREVKEQSGQKCFLAQPVTLLDIYTHWQQTSELGRKRKAEEDAALQAKKTRVSDPISTSESSEEEEEAEAETAKATPRLASTNSSVLGADLPSSMKEKAKAETEKAGKTGNSMPHPATGKTVANLLSGKSPRKSAEPSANTTLVSETEEEGSVPAFGAAAKPGMVSAGQADSSSEDTSSSSDETDVEGKPSVKPAQVKASSVSTKESPARKAAPAPGKVGDVTPQVKGGALPPAKRAKKPEEESESSEEGSESEEEAPAGTRSQVKASEKILQVRAASAPAKGTPGKGATPAPPGKAGAVASQTKAGKPEEDSESSSEESSDSEEETPAAKALLQAKASGKTSQVGAASAPAKESPRKGAAPAPPGKTGPAVAKAQAGKREEDSQSSSEESDSEEEAPAQAKPSGKAPQVRAASAPAKESPRKGAAPAPPRKTGPAAAQVQVGKQEEDSRSSSEESDSDREALAAMNAAQVKPLGKSPQVKPASTMGMGPLGKGAGPVPPGKVGPATPSAQVGKWEEDSESSSEESSDSSDGEVPTAVAPAQEKSLGNILQAKPTSSPAKGPPQKAGPVAVQVKAEKPMDNSESSEESSDSADSEEAPAAMTAAQAKPALKIPQTKACPKKTNTTASAKVAPVRVGTQAPRKAGTATSPAGSSPAVAGGTQRPAEDSSSSEESDSEEEKTGLAVTVGQAKSVGKGLQVKAASVPVKGSLGQGTAPVLPGKTGPTVTQVKAEKQEDSESSEEESDSEEAAASPAQVKTSVKKTQAKANPAAARAPSAKGTISAPGKVVTAAAQAKQRSPSKVKPPVRNPQNSTVLARGPASVPSVGKAVATAAQAQTGPEEDSGSSEEESDSEEEAETLAQVKPSGKTHQIRAALAPAKESPRKGAAPTPPGKTGPSAAQAGKQDDSGSSSEESDSDGEAPAAVTSAQVIKPPLIFVDPNRSPAGPAATPAQAQAASTPRKARASESTARSSSSESEDEDVIPATQCLTPGIRTNVVTMPTAHPRIAPKASMAGASSSKESSRISDGKKQEGPATQVSKKNPASLPLTQAALKVLAQKASEAQPPVARTQPSSGVDSAVGTLPATSPQSTSVQAKGTNKLRKPKLPEVQQATKAPESSDDSEDSSDSSSGSEEDGEGPQGAKSAHTLGPTPSRTETLVEETAAESSEDDVVAPSQSLLSGYMTPGLTPANSQASKATPKLDSSPSVSSTLAAKDDPDGKQEAKPQQAAGMLSPKTGGKEAASGTTPQKSRKPKKGAGNPQASTLALQSNITQCLLGQPWPLNEAQVQASVVKVLTELLEQERKKVVDTTKESSRKGWESRKRKLSGDQPAARTPRSKKKKKLGAGEGGEASVSPEKTSTTSKGKAKRDKASGDVKEKKGKGSLGSQGAKDEPEEELQKGMGTVEGGDQSNPKSKKEKKKSDKRKKDKEKKEKKKKAKKASTKDSESPSQKKKKKKKKTAEQTV
binding (HA-KRAS): binds

B2: treacle ribosome biogenesis factor 1 (TCOF1) (protein, UniProt Q13428 1-1488)
chain: B1 chain
binding [1]: no binding
